Experimental data: PubChem BioAssay AID1159578 (Peter MacCallum Cancer Centre, 2015)
In all, the deposit lists about 18,000 reagents; below is a part drawn at random. Over the whole deposit, about 1,030 (5.7%) were called active. 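Inactive calls also include pools with fewer than 3300 nuclei, whose migration was not assessed.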 Raw values vary from plate to plate and are shown uncorrected. Entries without a mark were called inactive.

Screen: 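Genome-wide hunt for genes controlling movement of lymphatic endothelial cells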 (primary screen)
System: human lymphatic endothelial cells
Reagent: siRNA pool against human genes, 40 nM
Timing: 48 h after transfection
Measured: 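High-content imaging of dye-stained cells in a scratch assay measures filled wound area and nuclei per well; duplicate means given as ratio to mock and robust z-score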
Scale: migration robust z-score: higher = faster migration into the scratch; migration relative to mock: higher = more scratch area covered than mock; nuclei per well: higher = more cells in the well
Rule for the call: 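Migration changed when robust z exceeds 2 or falls below -2 and mean nuclei number is at least 3300; otherwise not called changed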
Meaning of the calls: active = migration changed; inactive = no migration change, or too few cells

gene symbol | migration robust z-score | migration class with cell-count check | migration relative to mock | nuclei per well, duplicate mean
PHC1 (polyhomeotic homolog 1) | 0.32 | migration z between -2 and 2; enough cells | 0.97 | 5857
EPHB3 (EPH receptor B3) | 1.4 | migration z between -2 and 2; enough cells | 1.08 | 5029
SOX14 (SRY-box transcription factor 14) | 1.19 | migration z between -2 and 2; enough cells | 1.19 | 7054
ERAP1 (endoplasmic reticulum aminopeptidase 1) | 0.94 | migration z between -2 and 2; enough cells | 0.98 | 5846
SLC29A2 | -0.08 | migration z between -2 and 2; enough cells | 0.79 | 5258
ZNF181 (zinc finger protein 181) | -0.67 | migration z between -2 and 2; enough cells | 0.71 | 6364
UGT2B17 (UDP glucuronosyltransferase family 2 member B17) | 0.32 | migration z between -2 and 2; enough cells | 0.86 | 5071
RAI2 (retinoic acid induced 2) | -1.92 | migration z between -2 and 2; enough cells | 0.39 | 3665
ZDHHC13 (zDHHC palmitoyltransferase 13) | -0.52 | migration z between -2 and 2; enough cells | 0.75 | 6332
MYO3A (myosin IIIA) | -0.83 | migration z between -2 and 2; enough cells | 0.64 | 4644
ANKIB1 (ankyrin repeat and IBR domain containing 1) | 0.57 | migration z between -2 and 2; enough cells | 0.92 | 5691
DAO (D-amino acid oxidase) | -0.08 | migration z between -2 and 2; enough cells | 0.79 | 5164
FADS3 (fatty acid desaturase 3) | 0.38 | migration z between -2 and 2; enough cells | 0.98 | 6764
HOXC11 (homeobox C11) | -0.24 | migration z between -2 and 2; enough cells | 0.76 | 6110
ENTPD7 (ectonucleoside triphosphate diphosphohydrolase 7) | -0.46 | under 3300 nuclei; migration not judged | 0.72 | 3076
POGLUT3 (protein O-glucosyltransferase 3) | -2.39 (active) | migration z below -2; enough cells | 0.27 | 6418
ESRRG (estrogen related receptor gamma) | -0.22 | migration z between -2 and 2; enough cells | 0.83 | 7610
KRT80 (keratin 80) | -3.77 (active) | migration z below -2; enough cells | -0.09 | 6152
TMEM187 (transmembrane protein 187) | -0.38 | migration z between -2 and 2; enough cells | 0.78 | 5612
GATA6 (GATA binding protein 6) | 1.19 | migration z between -2 and 2; enough cells | 1.03 | 6138
APOBEC1 (apolipoprotein B mRNA editing enzyme catalytic subunit 1) | -1.12 | migration z between -2 and 2; enough cells | 0.59 | 4480
TCEA1 (transcription elongation factor A1) | -0.46 | migration z between -2 and 2; enough cells | 0.72 | 6140
PSORS1C2 (psoriasis susceptibility 1 candidate 2) | -0.33 | migration z between -2 and 2; enough cells | 0.8 | 5601
HCN1 | 0.1 | migration z between -2 and 2; enough cells | 0.82 | 5863
SBF1 (SET binding factor 1) | -0.62 | migration z between -2 and 2; enough cells | 0.68 | 6664
LGSN (lengsin, lens protein with glutamine synthetase domain) | -0.46 | migration z between -2 and 2; enough cells | 0.76 | 6352
PKN2 (protein kinase N2) | -3.04 (active) | migration z below -2; enough cells | 0.22 | 3634
ZNF101 (zinc finger protein 101) | 1.22 | migration z between -2 and 2; enough cells | 1.2 | 6422
DENND4A (DENN domain containing 4A) | 0.82 | migration z between -2 and 2; enough cells | 1.09 | 6976
C19orf12 (chromosome 19 open reading frame 12) | 0.05 | migration z between -2 and 2; enough cells | 0.9 | 5254
COX5B (cytochrome c oxidase subunit 5B) | 0.68 | migration z between -2 and 2; enough cells | 0.94 | 5014
OR11L1 (olfactory receptor family 11 subfamily L member 1) | 1.01 | migration z between -2 and 2; enough cells | 1.15 | 6582
PTPN4 (protein tyrosine phosphatase non-receptor type 4) | 0.39 | migration z between -2 and 2; enough cells | 0.88 | 4597
OR6K2 (olfactory receptor family 6 subfamily K member 2) | 0.1 | migration z between -2 and 2; enough cells | 0.92 | 5812
MFGE8 (milk fat globule EGF and factor V/VIII domain containing) | -0.24 | migration z between -2 and 2; enough cells | 0.82 | 6734
SP140 (SP140 nuclear body protein) | 0.19 | migration z between -2 and 2; enough cells | 0.94 | 5570
CEP152 (centrosomal protein 152) | 0.56 | migration z between -2 and 2; enough cells | 1.03 | 6326
CRLF3 (cytokine receptor like factor 3) | 1 | migration z between -2 and 2; enough cells | 1.14 | 7120
DCLRE1A (DNA cross-link repair 1A) | 0.73 | migration z between -2 and 2; enough cells | 0.94 | 5512

4 neighbouring entries already listed, for reference:
gene symbol | migration robust z-score | migration class with cell-count check | migration relative to mock | nuclei per well, duplicate mean
OR11L1 (olfactory receptor family 11 subfamily L member 1) | 1.01 | migration z between -2 and 2; enough cells | 1.15 | 6582
PTPN4 (protein tyrosine phosphatase non-receptor type 4) | 0.39 | migration z between -2 and 2; enough cells | 0.88 | 4597
OR6K2 (olfactory receptor family 6 subfamily K member 2) | 0.1 | migration z between -2 and 2; enough cells | 0.92 | 5812
MFGE8 (milk fat globule EGF and factor V/VIII domain containing) | -0.24 | migration z between -2 and 2; enough cells | 0.82 | 6734
